Sequences of proteins named here, by UniProt entry; tags and fusion partners are left off. Residues count along the entry.
UniProt D3ZK93: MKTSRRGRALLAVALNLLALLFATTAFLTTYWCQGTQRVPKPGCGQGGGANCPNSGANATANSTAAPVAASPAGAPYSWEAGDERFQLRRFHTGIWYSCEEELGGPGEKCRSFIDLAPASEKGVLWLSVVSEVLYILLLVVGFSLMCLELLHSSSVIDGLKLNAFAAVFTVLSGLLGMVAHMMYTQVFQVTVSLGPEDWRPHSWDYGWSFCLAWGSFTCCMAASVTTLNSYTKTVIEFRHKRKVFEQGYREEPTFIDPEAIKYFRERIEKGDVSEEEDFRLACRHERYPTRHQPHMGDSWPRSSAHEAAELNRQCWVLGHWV
UniProt P19493, residues 21-902: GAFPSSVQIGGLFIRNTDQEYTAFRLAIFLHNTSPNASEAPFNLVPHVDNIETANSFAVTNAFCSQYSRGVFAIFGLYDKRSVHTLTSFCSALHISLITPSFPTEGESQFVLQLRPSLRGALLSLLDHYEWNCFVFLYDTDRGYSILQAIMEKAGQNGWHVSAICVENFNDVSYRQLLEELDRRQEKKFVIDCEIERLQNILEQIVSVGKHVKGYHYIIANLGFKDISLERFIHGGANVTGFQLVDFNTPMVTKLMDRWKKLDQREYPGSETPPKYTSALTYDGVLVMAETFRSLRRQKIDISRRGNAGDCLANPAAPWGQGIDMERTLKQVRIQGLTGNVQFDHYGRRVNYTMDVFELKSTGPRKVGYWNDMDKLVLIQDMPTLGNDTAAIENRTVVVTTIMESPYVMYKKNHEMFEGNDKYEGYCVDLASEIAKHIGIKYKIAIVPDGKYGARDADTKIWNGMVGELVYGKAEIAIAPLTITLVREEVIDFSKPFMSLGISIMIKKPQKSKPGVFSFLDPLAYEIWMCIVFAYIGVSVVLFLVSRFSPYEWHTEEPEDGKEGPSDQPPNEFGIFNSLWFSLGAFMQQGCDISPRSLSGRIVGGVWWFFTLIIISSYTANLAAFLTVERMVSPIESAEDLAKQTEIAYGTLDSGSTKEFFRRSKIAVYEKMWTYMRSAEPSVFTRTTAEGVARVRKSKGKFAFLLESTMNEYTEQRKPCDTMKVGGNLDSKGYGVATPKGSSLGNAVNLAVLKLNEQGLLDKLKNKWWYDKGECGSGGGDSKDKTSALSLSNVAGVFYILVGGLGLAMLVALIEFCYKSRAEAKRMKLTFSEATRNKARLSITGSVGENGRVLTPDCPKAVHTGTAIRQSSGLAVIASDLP
UniProt P19490, residues 19-907: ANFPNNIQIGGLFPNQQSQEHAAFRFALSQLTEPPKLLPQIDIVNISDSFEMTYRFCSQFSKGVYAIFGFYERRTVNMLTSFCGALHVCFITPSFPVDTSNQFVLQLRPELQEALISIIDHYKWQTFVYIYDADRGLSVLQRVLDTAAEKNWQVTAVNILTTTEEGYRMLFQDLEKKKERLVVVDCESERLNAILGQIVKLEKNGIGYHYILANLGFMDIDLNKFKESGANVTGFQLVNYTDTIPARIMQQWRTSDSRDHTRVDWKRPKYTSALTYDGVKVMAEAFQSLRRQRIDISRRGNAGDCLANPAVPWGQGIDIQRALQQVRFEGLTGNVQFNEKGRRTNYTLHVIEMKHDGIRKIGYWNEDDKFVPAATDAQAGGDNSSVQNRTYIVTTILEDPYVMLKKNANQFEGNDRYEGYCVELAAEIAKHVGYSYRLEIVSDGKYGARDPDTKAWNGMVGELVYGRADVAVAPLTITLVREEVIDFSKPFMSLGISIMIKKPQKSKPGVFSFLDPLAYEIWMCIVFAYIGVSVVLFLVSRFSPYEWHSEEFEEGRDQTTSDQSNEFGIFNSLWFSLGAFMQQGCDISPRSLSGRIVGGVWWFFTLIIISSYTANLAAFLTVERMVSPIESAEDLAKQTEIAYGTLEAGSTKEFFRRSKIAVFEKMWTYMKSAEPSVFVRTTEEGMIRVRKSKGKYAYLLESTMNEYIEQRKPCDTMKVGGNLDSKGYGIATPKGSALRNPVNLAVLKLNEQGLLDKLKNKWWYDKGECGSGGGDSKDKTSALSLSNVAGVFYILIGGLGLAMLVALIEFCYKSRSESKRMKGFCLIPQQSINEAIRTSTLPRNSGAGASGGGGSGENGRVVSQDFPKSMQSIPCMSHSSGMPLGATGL
UniProt Q71RJ2: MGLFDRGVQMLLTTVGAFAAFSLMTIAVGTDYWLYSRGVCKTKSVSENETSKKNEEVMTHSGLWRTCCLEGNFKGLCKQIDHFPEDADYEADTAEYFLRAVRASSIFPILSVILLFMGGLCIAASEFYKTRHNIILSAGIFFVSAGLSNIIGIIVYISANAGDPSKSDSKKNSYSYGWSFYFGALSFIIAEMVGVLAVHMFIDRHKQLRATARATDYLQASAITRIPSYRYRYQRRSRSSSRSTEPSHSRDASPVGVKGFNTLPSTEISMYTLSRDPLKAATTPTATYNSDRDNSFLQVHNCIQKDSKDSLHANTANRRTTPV
UniProt P19492, residues 23-888: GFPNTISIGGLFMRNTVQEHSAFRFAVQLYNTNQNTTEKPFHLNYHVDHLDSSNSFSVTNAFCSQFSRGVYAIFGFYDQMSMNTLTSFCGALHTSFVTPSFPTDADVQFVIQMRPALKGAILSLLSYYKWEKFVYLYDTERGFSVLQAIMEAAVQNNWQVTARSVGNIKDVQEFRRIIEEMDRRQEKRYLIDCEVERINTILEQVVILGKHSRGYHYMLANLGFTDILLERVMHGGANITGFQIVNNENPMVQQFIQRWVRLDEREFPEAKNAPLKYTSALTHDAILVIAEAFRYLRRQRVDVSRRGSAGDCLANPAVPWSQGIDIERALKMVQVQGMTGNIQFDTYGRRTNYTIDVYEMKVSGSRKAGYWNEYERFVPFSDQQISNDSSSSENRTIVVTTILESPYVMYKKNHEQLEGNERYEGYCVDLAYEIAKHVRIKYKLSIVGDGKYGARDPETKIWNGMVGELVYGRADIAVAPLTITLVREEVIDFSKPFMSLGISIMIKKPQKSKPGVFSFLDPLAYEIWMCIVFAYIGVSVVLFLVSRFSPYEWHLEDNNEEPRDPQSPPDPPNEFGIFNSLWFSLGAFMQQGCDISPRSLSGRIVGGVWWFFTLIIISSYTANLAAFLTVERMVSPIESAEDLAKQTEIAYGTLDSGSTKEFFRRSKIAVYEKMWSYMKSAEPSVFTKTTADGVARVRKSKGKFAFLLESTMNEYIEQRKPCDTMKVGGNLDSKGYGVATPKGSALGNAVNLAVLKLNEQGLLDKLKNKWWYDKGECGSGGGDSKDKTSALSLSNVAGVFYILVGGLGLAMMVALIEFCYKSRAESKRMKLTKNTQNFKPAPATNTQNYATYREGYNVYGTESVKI
UniProt Q6MG82: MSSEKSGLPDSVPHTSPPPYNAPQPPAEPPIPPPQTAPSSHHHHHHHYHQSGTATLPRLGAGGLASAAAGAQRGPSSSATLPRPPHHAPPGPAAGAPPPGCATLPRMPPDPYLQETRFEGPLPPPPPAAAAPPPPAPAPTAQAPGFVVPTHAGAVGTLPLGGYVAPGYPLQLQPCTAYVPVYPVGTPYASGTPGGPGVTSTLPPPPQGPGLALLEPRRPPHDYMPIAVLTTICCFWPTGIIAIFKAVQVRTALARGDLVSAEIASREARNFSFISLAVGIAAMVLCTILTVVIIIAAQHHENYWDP

In article PMC10603098:

Molecular target: germ cell-specific gene 1-like protein (GSG1L) (rat (endogenous in rat brain)) (UniProt D3ZK93)
Test: affinity purification with mass spectrometry; multi-epitope AP-MS: three polyclonal anti-GSG1L antibodies on protein A Dynabeads, 2 h; membranes of adult (P59) rat brain solubilised in CL-47; GSG1L KO rats as negative control; minimum tnR of 0.25 as indicator of specific interaction

Substance | binding
GluA4 (AMPA receptor pore-forming subunit) (from UniProt P19493 21-902) | binds
GluA1 (AMPA receptor pore-forming subunit) (from UniProt P19490 19-907) | binds
transmembrane AMPAR regulatory protein γ2 (TARP γ2), rat brain (from UniProt Q71RJ2 1-323) | binds
GluA3 (AMPA receptor pore-forming subunit) (from UniProt P19492 23-888) | binds
proline-rich transmembrane protein 1 (PRRT1) (from UniProt Q6MG82 1-306) | binds

Results are given in words; binding and its absence hold for the method and conditions named. Binding seen in cells or lysates may run through a third protein. Here binding means that the protein was enriched with, or labelled near, the bait; the list need not be complete.
